Measured values reported in patent US7985594B2, “Biradical polarizing agents for dynamic nuclear polarization” (Massachusetts Institute of Technology, priority 2006, dated 2011).
Values joined by “and” are separate entries in the source; they are usually repeats but may differ in a detail not shown here. Equal values may be shown once.

Experiment: DNP enhanced 13C-CPMAS NMR experiments (1H polarization enhancement by microwave irradiation)
[1] = field sweep at 5 T / 140 GHz (FIG. 3)

## 1-(2,2,6,6-tetramethyl-1-oxy-4-piperidinyl)oxy-3-(2,2,6,6-tetramethyl-1-oxy-4-piperidinyl)amino-propan-2-ol [TOTAPOL]
5 mM TOTAPOL, 2 M 13C-urea in d6-DMSO/D2O/H2O (60:34:6 w/w), 90 K, 5 T, 3.5 kHz MAS, measured via 13C CP signal
  1H enhancement (enhancement factor for the 1H polarization): ~165±20 and ~165
150 mM proline, 5 mM TOTAPOL, d8-glycerol/D2O/H2O (60:32:8 w/w), 18 s microwave irradiation, 4.8 kHz MAS, 90 K, 5 T
  DNP enhancement of 13C-NMR spectrum of proline: 160
[1]
  maximum enhancement in field dependence of DNP enhancement: 165
  minimum enhancement in field dependence of DNP enhancement: −140
